## Primary screen of a compound library

Data taken from ChEMBL document CHEMBL3988442, “University of Dundee, Small-Polar-MMV Screening Library” (2021).

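Phenotypic screen: M. tuberculosis growth, cholesterol and DPPC medium, 4 days; the read-out is not stated. Concentration: 50 µM. The record gives no direction; compounds that gave an IC50 in retests scored well above the rest, so higher reads as more growth inhibition. Of about 69,000 compounds tested this way, about 370 (0.54%) reached 50% or more in at least one test.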

The filed quantity is “Percent Effect” (%). The record does not define 0% and 100%; most values in the screen are far below 50% and negative numbers occur (in some assays of this library far below -100). This is an unselected part of the compounds tested. Two or more numbers in one place are separate tests of the same structure; such repeats can differ widely.

For COc1ncccc1CNC(=O)N(Cc1ccccc1F)C1CC1 the result was -7.146% & 6.162%.
For Cc1cccc(C(=O)Nc2cccc3c2C(=O)NC3)n1 the result was 0.1518%.
For COc1ccc(-n2ncc(C(C)NC3CCSCC3)c2C)cc1 (stereo not drawn) the result was 14.74%.
For COCCN1CCN(CCS(=O)(=O)c2cccc(OC)c2)CC1 the result was 7.449%.
For Cc1csc(NC(=O)CN2CCc3c(nc(C4CC4)n3C)C2)n1 the result was 3.692%.
For O=C(O)C(F)(F)F.c1coc(CN2CCc3onc(Cn4cccc4)c3C2)c1 the result was 1.509%.
For CCN1CCN(c2ccc(CNC(=O)c3ccccc3F)cn2)CC1 the result was 15.39%.
For COc1ccc(CN2CCn3c(CO)nnc3C2)cc1CN1CCCC1.O=C(O)CC(O)(CC(=O)O)C(=O)O the result was 6.067%.
For CCn1ncc2c1C(COCC1CC1)CN(c1ccncn1)C2.O=C(O)C(F)(F)F.O=C(O)C(F)(F)F (stereo not drawn) the result was -0.4709%.
For COCC(=O)N1CCCn2c(CN3CCCC3)nnc2C1 the result was 13.5%.
For CCn1cc(C2=CCN(CCCOc3ccccc3)CC2)cn1 the result was 2.015%.
For CC(=O)N1CCC2(CC1)CN(C(=O)c1ccc3c(c1)OCCO3)C2 the result was 0.4396%.
For Cc1cnn(CCCNC(=O)NC2CCN(CC(F)(F)F)C2=O)c1 (stereo not drawn) the result was -6.867%.
For N#Cc1cccnc1OC1CCN(C(=O)c2cc(C3CC3)on2)CC1 the result was 17.33%.
For COc1ccc(CC(=O)NC2CCc3nc(C)cn3C2)cc1 (stereo not drawn) the result was -1.431% & -10.84%.
For O=C(CCn1nnc2ccccc2c1=O)N(CC1CCOC1)C1CC1 (stereo not drawn) the result was -7.692%.
For Cc1cc(C2CCCN(Cc3cccnc3)C2)n[nH]1 (stereo not drawn) the result was -37.54%.
For COc1ccc(C(=O)Nc2c(C(=O)N(C)C)nn(C)c2C)cc1 the result was -10.18%.
For Cc1cn2c(n1)CCC(NC(=O)Cn1cncn1)C2 (stereo not drawn) the result was -8.769%.
For COc1ccccc1-c1ncc(CN2CCC3(CCNCC3)CC2)cn1 the result was -3.652%.
For c1cc(N2CCOCC(Cc3ccc4[nH]ccc4c3)C2)ncn1 (stereo not drawn) the result was 17.47%.
For COCCC(=O)NC(C)(C(N)=O)c1cccc(Cl)c1 (stereo not drawn) the result was -7.097%.
For Cc1ccsc1CN(CCCC(F)(F)F)Cc1ccccn1 the result was 14.44%.
For CN(C)C(=O)N1CCn2nc(CNC(=O)CCc3ccccn3)cc2C1 the result was -14.94%.
For COc1ccc(-c2cccc(-c3ccn(CCN(C)C)n3)c2)nn1 the result was 2.125%.
For Cc1cncc(C2CCCN2CC(N)=O)n1 (stereo not drawn) the result was 3.314%.
For COCc1cc(N(C)CCc2c(C)n[nH]c2C)ncn1 the result was -15.02%.
For Cc1ccnc(NC(=O)c2ccc(Cl)o2)c1 the result was -7.207%.
For Cn1cnc2c1CCN(Cc1csc(-c3ccccc3)n1)C2 the result was -29.68%.
For CCCc1n[nH]c(C2CN(C(=O)CCCn3ccnc3)CCO2)n1 (stereo not drawn) the result was -15.82%.
For O=C(O)C(F)(F)F.[H][C@]12CC[C@@]3(N=C(CC)N(C)C3=O)[C@@]1([H])CN(Cc1ccc(F)cc1)C2 the result was 0.4974%.
For Cc1c[nH]nc1C1CCN(c2cnccn2)C1 (stereo not drawn) the result was 7.557% & 8.816%.
For CN(Cc1ccon1)C(=O)C1CC(=O)N(Cc2ccncc2)C1 (stereo not drawn) the result was 11.8%.
For CCN(Cc1nc(-c2ccco2)no1)Cc1cccc2c1OCO2 the result was 28.06%.
For Cc1noc(C)c1CN1CCCC1C(=O)OCc1ccccc1 (stereo not drawn) the result was 7.199%.
For O=C(NCCNC(=O)c1scnc1Cl)c1ccoc1 the result was -16.36%.
For Cc1cccnc1NC(=O)C1CCN(C(=O)C(C)C)CC1 the result was -16.43%.
For CCn1ncnc1C(NC(=O)CC1CCN(C(C)C)CC1)C1CC1 (stereo not drawn) the result was -11.02%.
For Oc1nc(C2CCN(Cc3ccccn3)CC2)cc2ccccc12 the result was -51.83%.
For Cc1cccc2c1OCCCC2NCc1nccn1Cc1ccccc1 (stereo not drawn) the result was 24.78%.
For CNC(=O)C1CN(c2ccnc(C)n2)CCN(C2CCOCC2)C1 (stereo not drawn) the result was -7.899%.
For O=C(CCC1CCCC1)N1CCC(O)(C(F)(F)F)C1 (stereo not drawn) the result was 47.93%.
For CC1CCc2nn(CCNC(=O)Cc3cccs3)c(=O)cc2C1 (stereo not drawn) the result was -15.12%.
For COC(=O)CCNC(=O)c1cc(-c2ccc(OC)cc2)nn1C the result was 11%.
For CC(=O)N1CCN(Cc2ccc(Cl)c(F)c2)CC(O)C1 (stereo not drawn) the result was -28.77%.
For CCOc1ccccc1-n1c(C2CC2)n[nH]c1=O the result was -16.04%.
For CC1c2ccc(F)cc2CCN1C(=O)c1[nH]c(=O)[nH]c(=O)c1N (stereo not drawn) the result was 5.672% & -12%.

The last 5 entries again:

{"smiles": "CC1CCc2nn(CCNC(=O)Cc3cccs3)c(=O)cc2C1", "stereo": "stereo not drawn", "Percent Effect": -15.12}
{"smiles": "COC(=O)CCNC(=O)c1cc(-c2ccc(OC)cc2)nn1C", "Percent Effect": 11}
{"smiles": "CC(=O)N1CCN(Cc2ccc(Cl)c(F)c2)CC(O)C1", "stereo": "stereo not drawn", "Percent Effect": -28.77}
{"smiles": "CCOc1ccccc1-n1c(C2CC2)n[nH]c1=O", "Percent Effect": -16.04}
{"smiles": "CC1c2ccc(F)cc2CCN1C(=O)c1[nH]c(=O)[nH]c(=O)c1N", "stereo": "stereo not drawn", "Percent Effect": "5.672 & -12"}